The record followed here is US9278925B2, “Substituted 3-(biphenyl-3-yl)-4-hydroxy-8-methoxy-1-azaspiro[4.5]dec-3-en-2-one” (BAYER INTELLECTUAL PROPERTY GMBH, priority 2011, dated 2016).

Each structure is given as a SMILES string. Not every entry of the source has a single result; some have several. This is not the full list of results. There may be further records. The values listed for one entry seem to repeat one measurement; one of them may be the mean.

The test concerns human ACC1. The test is described as follows: Human ACC1 enzyme assay (ADP-Glo). It is filed as biochemical. The settings on record: pairwise, same dilution series. In general terms: ADP-Glo turns the ADP formed in a reaction into a luminescent signal.

With `CO[C@]1(C)CC[C@]2(CC1)NC(=O)C(c1cc(-c3ccc(Cl)c(F)c3)ccc1C)=C2O` [Example V.2-a, (5r,8r)-3-(4′-Chloro-3′-fluoro-4-methylbiphenyl-3-yl)-4-hydroxy-8-methoxy-8-methyl-1-azaspiro[4.5]dec-3-en-2-one], the “Ratio IC50s ACC2/ACC1 (respective measurement)” value is 114.8, 37.0, 79.1, 87.1, 55.9, 42.4, 48.0.

For `CO[C@]1(C)CC[C@]2(CC1)NC(=O)C(c1cc(-c3ccc(Cl)cc3)ccc1C)=C2O` [Example V.1-a, (5r,8r)-3-(4′-Chloro-4-methylbiphenyl-3-yl)-4-hydroxy-8-methoxy-8-methyl-1-azaspiro[4.5]dec-3-en-2-one], the “Ratio IC50s ACC2/ACC1 (respective measurement)” value was 29, 22, 26, 42, 24, 16, 13.
